The values below come from patent publication US20180237519A1 (OHIO STATE INNOVATION FOUNDATION, published 2018).

Amino acid sequences for entries named in this document (tags omitted). Residues count along the entry.
UniProt Q9NQ25, residues 23-335: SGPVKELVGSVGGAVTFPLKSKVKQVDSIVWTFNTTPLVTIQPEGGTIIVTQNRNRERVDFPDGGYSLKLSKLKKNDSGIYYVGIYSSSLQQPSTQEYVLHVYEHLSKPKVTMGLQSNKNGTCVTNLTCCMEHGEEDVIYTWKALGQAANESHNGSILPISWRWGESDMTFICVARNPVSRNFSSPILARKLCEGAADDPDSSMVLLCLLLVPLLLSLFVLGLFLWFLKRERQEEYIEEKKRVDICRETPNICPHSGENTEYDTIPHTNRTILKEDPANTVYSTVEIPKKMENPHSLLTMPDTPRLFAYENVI

In test [1] the target is T1, CS-1 (human, UniProt Q9NQ25 23-335). Nature of the test: flow cytometry on H929 cells; protein L-biotin and anti-biotin PE for detection. For orientation: In flow cytometry, cells or beads pass a laser one at a time.
The target in test [2] is T1, CS-1. Kind of test: flow cytometry on multiple myeloma cells, MFI against isotype control.

These are yes or no findings as the source states them, for the method shown. Some results given as binding are weak or reduced against the parent protein; the word gives no strength.

B1: anti-CS-1 tri-specific cytotoxic lymphocytes engager (TriCLE) (bispecific antibody)
chain: QVQLVESGGGLVKPGGSLRLSCAASGFTFSSYGMHWVRQAPGKGLEWVAFIRYDGSNKYYADSVKGRFTISRDNSKNTLYLQMNSLRAEDTAVYYCAKDRGLGDGTYFDYWGQGTTVTVSSGGGGSGGGGSGGGGSQSALTQPASVSGSPGQSITISCSGSSSNIGNNAVNWYQQLPGKAPKLLIYYDDLLPSGVSDRFSGSKSGTSAFLAISGLQSEDEADYYCAAWDDSLNGPVFGGGTKLTVLPSGQAGAAASESLFVSNHAYKLELKTGAGFTLPTSYHQQCYYVALDEAQVNSITFTFDTGSGSGTFRDPVGTYRYSASYILLKPSQGPKQQYWAVGTIVDQSAKCTISVRDGVSTSMSKQSQTMVIDGGGGSGGGGSGGGGSSVTVSTGQGWYDMARTAIMTSRACYYVASDESTPSSLQMYATSSSKDVTLTAKDKFKQNLRTESDSPHIMGIWELGQGPRQKVWNMWYTTFSYGSAKCSLKVSAGPRVLEAGPQQLQVQSHHHHHH
In the case of B1, the binding entry with CS-1 [1] and in the test with CS-1 [2] was “binds” each time.
